Measured values taken from patent publication US6139538A, “Iontophoretic agent delivery to the female reproductive tract” (Iotek, Inc., priority 1997, dated 2000).
Several values for one entry are separate records, joined by “and”; a condition that tells them apart may be missing. Equal values may be shown once. Read-outs that look alike come from different tables or passages of the source.

Key:
[1] = 20 minutes
in vitro = details: pig, uterine wall

With CCN(CC)CC(=O)Nc1c(C)cccc1C [lidocaine] the μg/g of tissue ([1]; Experiment #1, active (A1, A2, A3): 4% lidocaine solution, 1 mA) was 4667.1 µg/g and 3694.6 µg/g, the μg/g of tissue ([1]; Experiment #1, passive (P1, P2, P3): 4% lidocaine solution, no current) was 801.6 µg/g and 1051.5 µg/g and the μg/g of tissue ([1]; Experiment #2, active (A1, A2, A3): 4% lidocaine solution, 1 mA) was 9737.7 µg/g and 10318.0 µg/g. For the same compound, the concentration at 20 min (in vitro; average of lidocaine/g of tissue, first experiment, active delivery, average of three trials) was 4.47e+06 ng/g, the concentration at 20 min (in vitro; average of lidocaine/g of tissue, first experiment, passive delivery, average of three trials) was 900000 ng/g and the concentration at 20 min (in vitro; average of lidocaine/g of tissue, second experiment, active delivery, average of three trials) was 1.02e+07 ng/g. For the same compound, the concentration at 20 min (in vitro; average of lidocaine/g of tissue, second experiment, passive delivery, average of three trials) was 3.51e+06 ng/g, the concentration at 20 min (in vitro; μg/g of tissue, Experiment #1, active (A1, A2, A3): 4% lidocaine solution, 1 mA, 20 minutes) was 5.05e+06 ng/g and the concentration at 20 min (in vitro; μg/g of tissue, Experiment #1, passive (P1, P2, P3): 4% lidocaine solution, no current, 20 minutes) was 848000 ng/g. It also gave a concentration at 20 min (in vitro; μg/g of tissue, Experiment #2, active (A1, A2, A3): 4% lidocaine solution, 1 mA, 20 minutes) of 1.06e+07 ng/g.
